PubChem BioAssay AID493014 (National Center for Advancing Translational Sciences (NCATS), 2011)
Values joined by “and” are separate entries in the source; they are usually repeats but may differ in a detail not shown here. Equal values may be shown once. Out of some 340,000 compounds screened, about 170 (0.05%) were called active. The shares of active, inactive and inconclusive entries below differ from those in the screen. Calls come from the whole dose curve; as a rule, active = well fitted inhibition curve with a large enough effect in the signal ratio, with a control signal flat (not every such curve was filed as active); inconclusive = small, poorly fitted or top-dose-only effect, or effect the other way, or a change in a side signal; inactive = flat fitted curve, though single readings scatter; the % refers to the signal ratio. Potencies beside an inconclusive call are fits to weak or partial responses and may not hold up.

Assay: qHTS Assay to Find Inhibitors of Chronic Active B-Cell Receptor Signaling;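 for activity change, negative = inhibition: plate controls were basal doxycycline-induced cells for no effect and cells given 10 µM MG132 for full effect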
Settings: ABC-DLBCL IkBa-CBG/CBR reporter, luminescence ratio (green luciferase fused to IkBa over red control in TMD8 lymphoma cells), 4 h; activity change, negative = inhibition: at 46.1 µM (top of the series)
Method in brief: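 Compounds up to 46 uM were incubated four hours with TMD8 cells whose green CBG68 luciferase is fused to IkappaBalpha; red CBR luminescence normalised the signal, and concentration-effect curves were fitted to fusion, red and ratio data.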
Potency is the fitted concentration of half-maximal effect.

SMILES | Potency | activity change, negative = inhibition
COc1ccc(N/C=C2\CCc3ccccc3C2=O)cc1 | inconclusive: 25.1 µM [falling, partial curve] | 
Cn1c(=O)c2cc(S(=O)(=O)NC(C(=O)N3CCCCCC3)c3ccccc3)ccc2n(C)c1=O (stereo unspecified) | inconclusive: 29.1 µM [falling, single point] | 
Cc1ccc(N2CCN(CC(O)COc3cccc4ccccc34)CC2)cc1 (stereo unspecified) |  | inconclusive: -1.78%
O=C(NCCN1CCCCCC1)c1ccc(N2CCCC2=O)cc1 |  | inconclusive: 12.5%
COc1cc2c(cc1OC)CN(Cc1cccs1)CC2 |  | inconclusive: 3.06%
O=C(CCS(=O)(=O)c1ccccc1)Nc1nnc(C(F)(F)F)s1 |  | inconclusive: -19.1%
CCOc1ccc(NC(=O)NCC2CCN(c3ccc(OC)cc3)C2)cc1 (stereo unspecified) |  | inactive: -1.47%
CCOC(=O)c1c(C)c2c(n1C)CCC/C2=N\O |  | inconclusive: -9.55%
Cc1coc2c(C)c3oc(=O)c(CC(=O)N[C@@H](CC(C)C)C(=O)O)c(C)c3cc12 |  | inconclusive: -3.95%
CC(Sc1nnc(Cc2ccccc2)n1C)C(=O)NC1CC1 (stereo unspecified) |  | inactive: 2.12%
CC(C)(O)C#Cc1ccc(CN2CCN(Cc3ccsc3)C(CCO)C2)s1 (stereo unspecified) |  | inconclusive: -8.76%
Cc1ccc(/C=C/C(=O)c2ccccc2)cc1 | inconclusive: 29.1 µM [falling, single point] | 
COC(=O)c1ccc(CSc2nnc(CS(=O)Cc3ccc(Br)cc3)n2-c2ccccc2)cc1 (stereo unspecified) |  | inconclusive: -15%
Cc1ccccc1CN1CCN(Cc2ccc3cccc(F)c3n2)CC1CCO (stereo unspecified) |  | inactive: -2.62%
O=C(NCCCN1CCN(c2ccccc2F)CC1)C1CCCN(S(=O)(=O)c2cnc[nH]2)C1 (stereo unspecified) |  | inactive: -0.0643%
CCOC(=O)c1cc(-c2ccc([N+](=O)[O-])cc2)nc2c1c(=O)[nH]c(=O)n2Cc1ccccc1 | inconclusive: 3.98 µM [rising, partial curve, poor fit] | 
COC(=O)C1=CN(Cc2cccs2)C=C(C(=O)OC)C1c1cccc(Cl)c1 |  | inconclusive: -0.818%
O=[N+]([O-])c1ccc(/C=N/NC(=S)Nc2ccccc2)o1 | inconclusive: 29.1 µM [falling, single point] | 
O=C(O)c1ccc(/C=N/NC(=O)c2ccc(NS(=O)(=O)c3cccs3)cc2)cc1 |  | inconclusive: -25.8%
CN(C)c1ccc(/C=N/n2c(-c3ccccc3Br)n[nH]c2=S)cc1 |  | inconclusive: 13.8%
CC(C)NC[C@@H](O)c1ccc(O)c(O)c1 |  | inactive: -6.41%

SMILES | Potency | activity change, negative = inhibition
COc1ccccc1NC(=O)CNC(c1ccccc1)c1ccccc1 |  | inconclusive: 2.44%
Cc1cc(C)c2nc(NC(=O)C3CC(=O)N(Cc4ccco4)C3)sc2c1 (stereo unspecified) |  | inconclusive: 3.34%
O=C(CNC(=O)c1cccs1)Nc1cccc(S(=O)(=O)N2CCOCC2)c1 |  | inactive: -4%
CCc1noc(C)c1C(=O)OC(C)C(=O)c1c(C)[nH]c2ccccc12 (stereo unspecified) |  | inactive: -4.98%
COc1ccc(C=NCCCN2CCOCC2)cc1 | inconclusive: 0.517 µM [falling, full curve, poor fit] | 
O=C1CC(NS(=O)(=O)c2ccc([N+](=O)[O-])cc2)CN1c1cccc(F)c1 (stereo unspecified) |  | inactive: 1.2%
Cc1cccc(N2CCN(CC(O)COc3ccccc3Cl)CC2)c1 (stereo unspecified) |  | inconclusive: -9.94%
CCOc1cc(C(c2c(C)[nH][nH]c2=O)c2c(C)[nH][nH]c2=O)cc([N+](=O)[O-])c1O |  | inconclusive: -1.62%
COCCNC(=O)c1ccc2c(c1)C(=O)c1ccccc1-2 |  | inconclusive: -0.325%
COc1ccc(C(=O)N=c2sc3ccccc3n2C)cc1OC |  | inconclusive: 12.7%
CC(C)(C)C(=O)Nc1nc2ccc(S(C)(=O)=O)cc2s1 |  | inconclusive: -18.6%
C(=N\Nc1ccccn1)/c1ccc(N2CCOCC2)cc1 |  | inconclusive: 1.34%
Cc1ccc(OCCC(=O)N2CCN(c3ccc(O)cc3)CC2)cc1 |  | inactive: -9.48%
Cc1ccc(NC(=O)CSc2nnc(-c3cccs3)n2Cc2ccco2)cc1 |  | inconclusive: -0.0314%
COc1ccccc1CNc1ncnc2cc(Cl)ccc12 |  | inconclusive: 5.66%
Cc1ccc(C(=O)C2=C(O)C(=O)N(CC3CCCO3)C2c2ccccc2F)o1 (stereo unspecified) |  | inactive: -2.5%
CCOc1ccc(NC(=O)CN(C)C(=O)CCCOc2ccc(Br)cc2)cc1OCC |  | inconclusive: 7.75%
O=C(/C=C/c1cccc(F)c1)OCC(=O)c1ccc[nH]1 |  | inconclusive: 1.27%
Cc1ccc(N2CC(C(=O)Nc3ccccc3C(=O)NC3CCCCC3)CC2=O)cc1 (stereo unspecified) |  | inactive: -20.3%
O=C(Nc1ccc2c(c1)OCCO2)c1ccc(Cl)c(Cl)c1 | inconclusive: 25.1 µM [falling, partial curve] | 
O=C(/C=C/c1ccco1)Nc1cccnc1 | inconclusive: 35.5 µM [falling, single point] | 

SMILES | Potency | activity change, negative = inhibition
Cc1cccc(S(=O)(=O)Nc2ccc(-c3nc4ccc(C)cc4s3)cc2)c1 |  | inactive: 9.98%
CSc1nnc(-c2ccc(O)cc2)n1C |  | inconclusive: 3.36%
O=C(COc1cccc2ccccc12)N1c2ccccc2CCc2ccccc21 |  | inconclusive: 6.79%
CCCCNC(=O)[C@@](CC)(ONc1ccccc1C(F)(F)F)c1cccc2ccccc12 |  | inconclusive: 6.54%
Cc1cc(OCc2cc(C(=O)N3CCCCCC3)no2)cc(C)c1Cl |  | inconclusive: -0.289%
CS(=O)(=O)Oc1ccccc1/C=C1/N=C(c2ccc(F)cc2)OC1=O |  | inactive: -0.0644%
O=C(O)CSc1cccc2cccnc12 |  | inconclusive: 3.41%
Cc1cccc(NC(=S)NNC(=O)c2ccccc2OC(F)F)c1 | inconclusive: 29.1 µM [falling, single point] | 
c1ccc(-c2noc(-c3ccc4ccccc4c3)n2)nc1 | inconclusive: 1.16 µM [rising, full curve, poor fit] | 
COc1cc(OC)nc(NC(=O)NS(=O)(=O)c2ccccc2Cl)n1 |  | inactive: -0.015%
O=C(C1CCN(S(=O)(=O)c2ccc(Br)s2)CC1)N1CCN(C2CCCCC2)CC1 |  | inconclusive: -11.1%
CCNC(=O)CN(c1ccc(Oc2ccccc2)cc1)S(=O)(=O)c1ccccc1 |  | inconclusive: 5.33%
O=C(COc1ccccc1[N+](=O)[O-])Nc1ccc(N2CCN(C(=O)c3cccs3)CC2)cc1 | inconclusive: 31.6 µM [falling, single point] | 
O=C(C[C@H]1C[C@H](C(=O)N2CCCCC2)[C@@]2(CCc3ccccc3)c3[nH]c4ccc(Cl)cc4c3CCN2C1=O)NCCC1=CCCCC1 |  | inconclusive: -0.212%
Cc1occc1C(=O)Nc1cccc2ccccc12 | inconclusive: 20.6 µM [falling, partial curve] | 
CC(C)(C)c1ccc(Cn2nnc3c(=O)[nH]c(C4CCCN(C(=O)Cc5cccs5)C4)nc32)cc1 (stereo unspecified) |  | inconclusive: 8.48%
O=C(COc1ccc2c(-c3ccccc3)cc(=O)oc2c1)NCCCN1CCOCC1 |  | inconclusive: 8.77%
CN=C1S/C(=C\c2ccc(N3CCOCC3)c(F)c2)C(=O)N1C |  | inconclusive: 6.65%
CC(=O)C1=C(C)OC2(O)c3ccccc3C(=O)C12O (stereo unspecified) |  | inconclusive: -1.62%
CC(C)CCNC(=O)C(CC(C)C)N(Cc1ccc2c(c1)OCO2)C(=O)c1snc(C(N)=O)c1N (stereo unspecified) |  | inactive: 0.763%
COc1ccc(C(=O)C2CCCN(C(=O)CCc3scnc3C)C2)c(C)c1 (stereo unspecified) | inconclusive: 35.5 µM [rising, partial curve] | 

SMILES | Potency | activity change, negative = inhibition
Cc1cc(C)c(C#N)c(SCc2nnc(-c3ccccc3[N+](=O)[O-])o2)n1 |  | inconclusive: 5.32%
CCO[C@@H]1OC(C(=O)N2CCCCCCC2)=C[C@H](c2cn(C(C)=O)c3ccccc23)[C@H]1CCCO |  | inactive: 3.78%
C/C(=N\NC(=O)COc1ccccc1[N+](=O)[O-])c1cccc(NC(=O)c2ccncc2)c1 | inconclusive: 2.82 µM [falling, single point] | 
CC(C)CC(=O)NCCCN1CCN(CCCNC(=O)CC(C)C)CC1 |  | inconclusive: 7.61%
Cc1ncoc1C(=O)N1CCc2c([nH]c3ccccc23)C1C(C)(C)C (stereo unspecified) | inconclusive: 17.8 µM [falling, partial curve, poor fit] | 
CCOC(=O)C1=C(O)C(=O)N(Cc2cccnc2)C1c1ccc(C)cc1 (stereo unspecified) |  | inconclusive: 5.97%
N#CC1=C(SCC(=O)Nc2ccccc2)NC(=O)CC1c1ccc(O)cc1 (stereo unspecified) | inconclusive: 0.291 µM [falling, full curve, poor fit] | 
O=C(NCc1ccco1)C(=O)NCc1ccccc1Cl | inconclusive: 23.1 µM [falling, partial curve] | 
S=C(Nc1ccccc1)Nc1ccc2cn[nH]c2c1 | inconclusive: 28.2 µM [falling, single point] | 
CCOc1ccc(-n2cc(-c3ccccc3)c3c(=S)nc[nH]c32)cc1 |  | inconclusive: -0.545%
COc1ccc2cnn(-c3ccccc3)c(=O)c2c1OC | inconclusive: 2.59 µM [rising, full curve, poor fit] | 
Cc1ccnc2ccc(SC(F)(F)F)cc12 |  | inactive: -1.4%
OCC#CCSc1nnc(-c2ccncc2)o1 |  | inconclusive: -0.321%
C=CCn1c(N)cc(=O)nc1SCC(=O)N(c1ccccc1)c1ccccc1 |  | inconclusive: 1.56%
CC(=O)Oc1ccc(-c2cccc(C(=O)N(C)c3ccc(O)cc3)c2)cc1 |  | inactive: -7.5%
Cn1c(=O)n(C)c2cc(NC(=O)c3ccccc3NS(C)(=O)=O)ccc21 | inconclusive: 22.4 µM [falling, partial curve] | 
Cc1ccc(-n2nnc3c(=O)n(CC(=O)c4ccccc4)cnc32)cc1 |  | inactive: -1.6%
CC(=O)[C@H]1CC[C@H]2[C@@H]3CCC4=CC(=O)CC[C@]4(C)[C@H]3CC[C@]12C |  | inconclusive: -26.9% and inconclusive: -20.7%

Taken from above:
Value of S=C(Nc1ccccc1)Nc1ccc2cn[nH]c2c1 under Potency: inconclusive: 28.2 µM [falling, single point]
Value of O=C(NCc1ccco1)C(=O)NCc1ccccc1Cl under Potency: inconclusive: 23.1 µM [falling, partial curve]
Value of CCO[C@@H]1OC(C(=O)N2CCCCCCC2)=C[C@H](c2cn(C(C)=O)c3ccccc23)[C@H]1CCCO under activity change, negative = inhibition: inactive: 3.78%
